Some test systems named below: A101D; A2058; A375; C32; CBRC008; CBRC013; CBRC014; CBRC016; CBRC017; COLO792; COLO800; COLO829; G361; IPC-298; IST-MEL1; LOXIMVI; MEL-HO; CBRC034.
Common to all, as to assay: cleaved PARP positive nuclei fraction relative to DMSO control; melanoma cells; higher = more apoptosis
Common to all, as to conditions: library dose: low library concentration; 72 h

The other results are listed elsewhere or left out. Repeats are few or missing, and single values can be far off.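 The apoptosis fraction was the count of cleaved-PARP antibody-stained nuclei relative to all DNA-stained nuclei, imaged in 1,536-well plates. Screening doses were set so most cells survived, and baseline and induced cleaved-PARP levels vary greatly across cell lines.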

For `N#CC[C@H](C1CCCC1)n1cc(-c2ncnc3[nH]ccc23)cn1` [ruxolitinib] + C=CCn1c(=O)c2cnc(Nc3ccc(N4CCN(C)CC4)cc3)nc2n1-c1cccc(C(C)(C)O)n1 [MK1775] (first compound 1 µM, partner dose 0.02 µM), the “cleaved PARP positive nuclei fraction” value with A101D is 93.3%; in the test on A2058, 53.6%; with A375, 129%; with C32 it was 125%; with CBRC008, 62.2%; with CBRC013 it was 145%. Also, the “cleaved PARP positive nuclei fraction” value was 83.5% in the test on CBRC014 (line from a melanoma biopsy); 60% in the test on CBRC016 (line from a melanoma biopsy); 114% in the test on CBRC017 (line from a melanoma biopsy); 79% in the test with COLO792; 11.9% in the test with COLO800; 90.6% with COLO829. Moreover, the “cleaved PARP positive nuclei fraction” value turned out to be 44.6% in the test with G361; 98.7% in the test with IPC-298; 51.4% in the test on IST-MEL1; 73.8% in the test with LOXIMVI; 37.9% with MEL-HO.

Consider `Cc1ccc(Nc2nccc(N(C)c3ccc4c(C)n(C)nc4c3)n2)cc1S(N)(=O)=O` [Pazopanib] + O=C(O)c1ccc(-c2c[nH]c3ncc(-c4ccccc4)cc23)cc1C1CCCC1 [GSK650394] (first compound 0.4 µM, partner dose 0.16 µM), for which the “cleaved PARP positive nuclei fraction” value came to 69.4% in the test with A101D; 74.1% with A2058; 247% in the test on A375; 99.9% in the test with C32; 60.1% in the test on CBRC008 (line from a melanoma biopsy); 128% with CBRC013. Besides, the “cleaved PARP positive nuclei fraction” value came to 94.6% in the test with CBRC014; 88.8% in the test with CBRC016; 106% in the test with CBRC017; 102% with COLO792; 73.9% with COLO800; 26.1% in the test on COLO829. For the same molecule, the “cleaved PARP positive nuclei fraction” value in the test on G361 stood at 51.7%; in the test on IPC-298, 57.1%; with IST-MEL1, 55.1%; in the test with LOXIMVI it was 347%; in the test on MEL-HO, 133%.

For `O=C(/C=C/c1cccnc1)NCCCCC1CCN(C(=O)c2ccccc2)CC1` + C#Cc1cccc(Nc2ncnc3cc(OCCOC)c(OCCOC)cc23)c1 [erlotinib] (first compound 0.01 µM, partner dose 0.8 µM), the “cleaved PARP positive nuclei fraction” value in the test on A101D was determined as 73.4%; in the test on A2058, 115%; with A375, 224%; in the test on C32 it was 69.3%; in the test on CBRC008 it was 1960%; in the test with CBRC014 it was 117%. Further, the “cleaved PARP positive nuclei fraction” value in the test with CBRC016 was 827%; in the test on CBRC017, 706%; in the test on CBRC034 (line from a melanoma biopsy), 1310%; in the test with COLO792, 452%; in the test on COLO800, 208%; with COLO829, 114%. For the same molecule, the “cleaved PARP positive nuclei fraction” value with G361 came out at 4260%; in the test on IPC-298, 2200%; in the test on IST-MEL1, 211%; with LOXIMVI, 203%; in the test with MEL-HO, 140%.

As for `O=c1[nH]nc(Sc2ncc([N+](=O)[O-])s2)n1-c1ccc2c(c1)OCCO2` + Cc1cc([N+](=O)[O-])ccc1NS(=O)(=O)c1cc(Cl)ccc1Cl [FH535] (first compound 0.2 µM, partner dose 1 µM), the “cleaved PARP positive nuclei fraction” value amounted to 43.5% in the test with A101D; 96.7% in the test with A2058; 49.1% in the test with C32; 411% in the test with CBRC008; 124% with CBRC014; 170% in the test on CBRC016. Further, the “cleaved PARP positive nuclei fraction” value in the test with CBRC017 is 142%; with COLO792, 117%; in the test with COLO800, 31.9%; with COLO829, 66.7%; in the test on G361 it was 111%; in the test on IPC-298, 94%. Moreover, the figures for the “cleaved PARP positive nuclei fraction” value in the test on IST-MEL1 and with LOXIMVI were 97.7% and 70.8%, respectively.

Consider `CC[C@]1(O)C[C@H]2CN(CCc3c([nH]c4ccccc34)[C@@](C(=O)OC)(c3cc4c(cc3OC)N(C=O)[C@H]3[C@@](O)(C(=O)OC)[C@H](OC(C)=O)[C@]5(CC)C=CCN6CC[C@]43[C@@H]65)C2)C1` [vincristine] + COC(=O)c1sccc1S(=O)(=O)Nc1ccc(Nc2ccccc2)cc1OC [GSK0660] (first compound 0.0001 µM, partner dose 1 µM), for which the “cleaved PARP positive nuclei fraction” value turned out to be 11.5% with A101D; 1840% in the test on A2058; 93.5% in the test on C32; 313% with CBRC008; 105% in the test with CBRC014; 105% in the test with CBRC016. Moreover, the “cleaved PARP positive nuclei fraction” value in the test on CBRC017 turned out to be 137%; in the test with COLO792, 53%; in the test with COLO800, 83.9%; with COLO829 it was 511%; with G361, 58.5%; in the test on IPC-298, 98.4%. Also, the “cleaved PARP positive nuclei fraction” value in the test with IST-MEL1 came out at 94.6%; with LOXIMVI, 87.3%.

Regarding `Cc1cc(Nc2cc(N3CCN(C)CC3)nc(Sc3ccc(NC(=O)C4CC4)cc3)n2)n[nH]1` [Tozasertib] + Cc1cc(Nc2cc(N3CCN(C)CC3)nc(/C=C/c3ccccc3)n2)n[nH]1 [ENMD2076] (first compound 0.006 µM, partner dose 0.04 µM), the “cleaved PARP positive nuclei fraction” value was found to be 110% in the test with A101D; 107% in the test on A2058; 210% with A375; 67.3% in the test on C32; 117% in the test with CBRC008; 100% in the test with CBRC014. The “cleaved PARP positive nuclei fraction” value amounted to 117% with CBRC016; 115% with CBRC017; 89% in the test with CBRC034; 68% with COLO792; 78.9% with COLO800; 149% in the test on COLO829. The “cleaved PARP positive nuclei fraction” value in the test with G361 came out at 78.9%; in the test with IPC-298, 90.3%; with IST-MEL1, 32.6%; in the test with LOXIMVI, 127%; with MEL-HO it was 43.9%.

On to `O=C(Nc1cc(C(F)(F)F)cc(C(F)(F)F)c1)c1cc(Cl)ccc1O` + CC(=O)O[C@@]12CO[C@@H]1C[C@H](O)[C@@]1(C)C(=O)[C@H](O)C3=C(C)[C@@H](OC(=O)[C@H](O)[C@@H](NC(=O)OC(C)(C)C)c4ccccc4)C[C@@](O)([C@@H](OC(=O)c4ccccc4)[C@H]21)C3(C)C [Docetaxel] (first compound 0.016 µM, partner dose 0.0001 µM), for which the “cleaved PARP positive nuclei fraction” value with A101D was found to be 54.5%; in the test on A2058, 2210%; with A375, 1100%; with C32, 244%; with CBRC008, 481%; with CBRC014, 131%. Further, the “cleaved PARP positive nuclei fraction” value in the test on CBRC016 came out at 216%; in the test with CBRC017, 183%; with CBRC034, 174%; in the test on COLO792, 542%; with COLO800, 355%; with COLO829, 107%. Besides, the “cleaved PARP positive nuclei fraction” value stood at 955% in the test on G361; 106% in the test on IPC-298; 161% in the test on IST-MEL1; 319% in the test with LOXIMVI; 158% in the test on MEL-HO.

As to `CC[C@]1(O)C[C@H]2CN(CCc3c([nH]c4ccccc34)[C@@](C(=O)OC)(c3cc4c(cc3OC)N(C=O)[C@H]3[C@@](O)(C(=O)OC)[C@H](OC(C)=O)[C@]5(CC)C=CCN6CC[C@]43[C@@H]65)C2)C1` [vincristine] + Cn1c(=O)n(-c2ccc(C(C)(C)C#N)cc2)c2c3cc(-c4cnc5ccccc5c4)ccc3ncc21 [NVP-BEZ235] (first compound 0.0001 µM, partner dose 0.004 µM), the “cleaved PARP positive nuclei fraction” value in the test on A101D was 172%; in the test on A2058, 161%; with A375, 238%; in the test on C32 it was 174%; with CBRC008, 387%; in the test with CBRC014, 111%. The “cleaved PARP positive nuclei fraction” value in the test on CBRC016 was 69.2%; in the test with CBRC017, 127%; in the test with CBRC034, 84.2%; in the test with COLO792, 97.5%; in the test on COLO800, 103%; in the test on COLO829, 137%. Besides, the “cleaved PARP positive nuclei fraction” value with G361 was found to be 113%; with IPC-298 it was 167%; with IST-MEL1, 180%; in the test with LOXIMVI, 153%; in the test with MEL-HO, 142%.

Source of the values: the supplement of paper PMC4604168 (melanoma cell lines).
